Like-named read-outs stand apart in the source and are kept apart here.
Columns and labels:
S. pyogenes = type: cell-based; conditions: maximum 50
S. pneumoniae = type: cell-based; conditions: maximum 50 passages
[1] = strain 237 Macrolide-R [LA mutation]
[2] = strain 2011 Macrolide-R [mef(A)]
[3] = strain 2094 Macrolide-R [erm(A)]
[4] = strain 1635 Macrolide-R [erm(A)]
[5] = strain 2686 Macrolide-R [L4 mutation]
[6] = strain 3009 Macrolide-R [23SrRNA mutation]
[7] = strain 3665 Macrolide-R [mef(A)]
[8] = strain 7127 Macrolide-S [S20N in L4, A105V in L22]

SMILES | Selected Resistance (number of passages) (S. pyogenes; [1]) | Selected Resistance (number of passages) (S. pyogenes; [2]) | Selected Resistance (number of passages) (S. pyogenes; [3]) | Selected Resistance (number of passages) (S. pyogenes; strain 2132 Macrolide-S) | Selected Resistance (number of passages) (S. pyogenes; strain 2368 Macrolide-R [erm(B)]) | Selected Resistance # Pass (S. pneumoniae; strain 24 Macrolide-R [erm(B)]) | Selected Resistance # Pass (S. pneumoniae; strain 1076 Macrolide-R [erm(B)&mef(A)]) | Selected Resistance # Pass (S. pneumoniae; strain 1077 Macrolide-S) | Selected Resistance # Pass (S. pneumoniae; [4]) | Selected Resistance # Pass (S. pneumoniae; [5]) | Selected Resistance # Pass (S. pneumoniae; [6]) | Selected Resistance # Pass (S. pneumoniae; [7]) | Selected Resistance # Pass (S. pneumoniae; [8])
CC[C@H]1OC(=O)[C@H](C)C(=O)[C@H](C)[C@@H](O[C@@H]2O[C@H](C)C[C@H](N(C)C)[C@H]2O)[C@](C)(OC)C[C@@H](C)C(=O)[C@H](C)[C@H]2N(CCCCn3cnc(-c4cccnc4)c3)C(=O)O[C@]12C [TEL, telithromycin] | 50 | 50 | 22 | 50 | 6 | 14 | 14 | 15 | 50 | 25 | 50 | 14 | 38
CC[C@H]1OC(=O)[C@H](C)[C@@H](O[C@H]2C[C@@](C)(OC)[C@@H](O)[C@H](C)O2)[C@H](C)[C@@H](O[C@@H]2O[C@H](C)C[C@H](N(C)C)[C@H]2O)[C@](C)(OC)C[C@@H](C)C(=O)[C@H](C)[C@@H](O)[C@]1(C)O [CLR, clarithromycin] | 50 | 50 | 6 | 50 | – | – | – | 50 | 49 | 14 | 25 | 26 | 15

— patent US9901592B2 (priority 2008, dated 2018)
